This is one part of the list. The main result of the screen is listed elsewhere. These columns were measured beside it and carry no call. The list favours compounds with an active or inconclusive main result.
Experiment: hepatocyte lipid droplet accumulation inhibitors, confirmation, imaging, AML12 mouse hepatocytes, single concentration, high-content (AID 463183);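 also: cells counted after overnight compound exposure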
Conditions: BODIPY lipid droplet imaging, measured here: cell count, cytotoxicity, at 5.2 µM, droplets induced with 100 µM oleic acid
CCOc1ncccc1C(=O)OC(C)C(=O)Nc1ccc(CC)cc1 (centres undefined) showed a cell count of 1640 cells.
Work on Cc1cccc(NC(=O)c2nc[nH]c2C(=O)NCC(=O)OC(C)(C)C)c1 yielded a cell count of 1520 cells.
CCn1cc(C(=O)NCCCN(CC(C)C)CC(C)C)c(=O)c2cc(S(=O)(=O)N(C)C3CCCCC3)ccc21 gave a cell count of 1570 cells.
In the case of COc1ccc(Cl)cc1NC(=O)CN(C)C(=O)Cc1ccc2c(c1)CCC2, the cell count is reported as 1550 cells.
Compound CCN(CC(=O)Nc1ccccc1C(F)(F)F)C(=O)c1cc(-c2cccs2)nn1-c1ccccc1 has a cell count of 1660 cells.
Compound O=C(NCCc1nc2ccccc2[nH]1)c1ccc(Br)o1 has a cell count of 1550 cells.
Work on CC(C)(C)c1cc(Br)c(O)c(N=Nc2ccc(S(=O)(=O)N3CCOCC3)cc2)c1 yielded a cell count of 1550 cells.
With CC1Cc2cc(S(=O)(=O)NCCC(=O)N(C)Cc3ccccc3)ccc2N1C(=O)C1CC1 (centres undefined) the cell count was 1560 cells.
CCc1ccccc1NC(=O)COc1ccc(C(=S)N2CCCC2)cc1 gave a cell count of 1550 cells.
CSc1nc2ccccc2n1CC(=O)Nc1c(C)cccc1C gave a cell count of 1590 cells.
With COC(=O)c1cn(NC(=O)c2ccc([N+](=O)[O-])cc2Cl)c(=O)c2ccccc12 the cell count was 1670 cells.
For COC(=O)/C(=C/c1ccc2c(c1)c1ccccc1n2C)NC(=O)c1ccccc1, the cell count was 1620 cells.
With Cc1ccc2cc(/C=N/NC(=O)[C@H]3C[C@@H]3c3ccccc3)c(Cl)nc2c1 the cell count was 1510 cells.
In the case of CS(=O)(=O)Nc1ccc(C(=O)Nc2ccccc2C(=O)NCc2ccco2)cc1, the cell count is reported as 1600 cells.
COC(=O)c1ccc(C2=NOC(C)(c3sc(-c4ccc(Cl)cc4)nc3C)C2)cc1 (centres undefined) showed a cell count of 1560 cells.
COC(=O)[C@@H]1C[C@@]2(O)[C@H](O)[C@H](O)[C@H](O)C[C@H]2N1Cc1cc(F)ccc1F showed a cell count of 1600 cells.
Cc1ccc(-c2nnc(OCc3cccnc3)c3ccccc23)cc1 gave a cell count of 1520 cells.
With Cc1cc(N(CCO)CCO)ccc1N=Nc1cc(F)ccc1F the cell count was 1550 cells.
With CCOc1ccc(CCNC(=O)COc2cc(=O)n(C)c3ccccc23)cc1OCC the cell count was 1640 cells.
COc1ccc(F)cc1CN1CCN(c2ncnc3scc(-c4ccccc4)c23)CC1 showed a cell count of 1660 cells.
With Cc1[nH]c2ccccc2c1/C=N/Nc1ccccc1[N+](=O)[O-] the cell count was 1640 cells.
CCOc1ccc2ccccc2c1/C=N/NC(=O)CNC(=O)C(c1ccccc1)c1ccccc1 gave a cell count of 1620 cells.
COC(=O)[C@H](Cc1c[nH]c2ccccc12)NC(=O)CCCc1c[nH]c2ccccc12 gave a cell count of 1590 cells.
Compound COc1ccc(N=C2C(=Nc3ccc(OC)cc3)N(c3ccc(OC)cc3)C(=S)N2C)cc1 has a cell count of 1600 cells.
Work on CCN(CC)C(=O)CC(c1ccc(OC)cc1)c1c(OC)cc(OC)c2ccc(=O)oc12 (centres undefined) yielded a cell count of 1590 cells.
Work on Cc1cccc(CN2C(=O)N/C(=C/c3cc(C)n(-c4cc(C)ccn4)c3C)C2=O)c1 yielded a cell count of 1590 cells.
In the case of CCN1CCN(c2cc(C(C)C)nc3c(-c4ccccc4)c(C)nn23)CC1, the cell count is reported as 1620 cells.
C=CCC(=O)N1CCC(n2nccc2NC(=O)CCOc2ccccc2)CC1 gave a cell count of 1660 cells.
CCOc1ccc(CN(C)C(=O)CNC(=O)Cc2cccc3ccccc23)cc1 showed a cell count of 1620 cells.
Compound CC1=C(C(=O)NC2CCCc3c2cnn3-c2cccc(C)c2C)OCCO1 (centres undefined) has a cell count of 1630 cells.
With COC(=O)C1=C(C(=O)OC)SC(=C2C(=S)C(C)(C)N(C(=O)C(C)C)c3ccccc32)S1 the cell count was 1590 cells.
For CCC(C(=O)NCCc1ccccc1OC)n1nc(C)c2c(C)n(-c3ccccc3)nc2c1=O (centres undefined), the cell count was 1620 cells.
Work on CCS(=O)(=O)N1CCN(c2ccc([N+](=O)[O-])c(NCc3cccnc3)c2)CC1 yielded a cell count of 1620 cells.
For COc1ccccc1Nc1ccc(NS(=O)(=O)c2ccc(C(C)=O)cc2)cc1, the cell count was 1590 cells.
COc1ccccc1NC(=O)N1CCCC1C(=O)Nc1ccc2c(c1)OCO2 (centres undefined) showed a cell count of 1530 cells.
Cc1cc(C)cc(N(CC(=O)O)S(=O)(=O)c2c(C)noc2C)c1 gave a cell count of 1630 cells.
CN(C)/C=N/n1cnc2ccccc2c1=O showed a cell count of 1630 cells.
With CCC1=NN=C(c2ccc(F)cc2)C(c2c[nH]c3ccccc23)N1O (centres undefined) the cell count was 1640 cells.
Compound O=C(Nc1nc(-c2ccccc2)cs1)C1CCCCN1S(=O)(=O)c1ccc(Cl)cc1 (centres undefined) has a cell count of 1600 cells.
